Source: ChEMBL document CHEMBL3988442, “University of Dundee, Small-Polar-MMV Screening Library” (2021).

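Growth of Mycobacterium tuberculosis over 3 days (7H9 medium with glucose and tyloxapol); the read-out is not stated. Compounds at 50 µM. Direction is inferred from retests: higher values go with more growth inhibition. Size under these conditions: about 69,000 compounds, about 760 of them at 50% or above in at least one test.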

Each number is a percent effect as filed.
The controls that fix the scale are not given in the record; negative values are as filed.
This is an unselected part of the compounds tested.
Two or more numbers in one place are separate tests of the same structure; such repeats can differ widely.

For Cc1ccccc1-n1ncc2c(=O)n(CCN3CCCCC3)cnc21 the result was -11.41%. For CC(C)c1nc2c(n1C)CCN(CCCc1nc3ccccc3o1)C2 the result was -10.37%. With O=C1OCCC1N1CCN(c2ccc(O)cc2)CC1 (stereo not drawn) the screen gave -17.11%. NC(=O)N1CCCC1COC(=O)c1ccc(F)cc1Br (stereo not drawn) read 3.39%. Result for COc1ccc(-c2nccn2CC(O)CN2CCCC2)c(F)c1 (stereo not drawn) was -12.11%.

For Cc1cn2c(n1)CCC(NC(=O)CCOc1cccc(F)c1)C2 (stereo not drawn) the result was 4.896%. With CCc1ccc(C(O)CN2CCN(c3cccc(OC)c3)CC2)cc1 (stereo not drawn) the screen gave 24.86%. With Cc1cc(NCc2csc(-c3ccco3)n2)ccc1C(N)=O the screen gave 13.71%. With CC(=O)c1cc(CN2C[C@@H](NS(=O)(=O)N(C)C)[C@H](C(C)C)C2)cs1 the screen gave -25.11%. CCN(C(=O)CCOC)C(c1ccc(Cl)cc1)c1ccccn1 (stereo not drawn) gave 5.944%.

Cc1ccc2c(n1)N(CCN(C)C)CCN(C(=O)c1cccs1)C2.O=C(O)C(F)(F)F.O=C(O)C(F)(F)F gave -14.97%. Result for COC(=O)CCNC(=O)C1CC(=O)N(C2CCCC2)C1 (stereo not drawn) was 1.98%. CCN(CC)S(=O)(=O)N1CCCC1C(=O)N1CCSCC1 (stereo not drawn) gave -3.386% and 16.07%. With COCCN1CCOCC12CCN(Cc1ccn(C)n1)CC2.O=C(O)C(F)(F)F.O=C(O)C(F)(F)F the screen gave -10.72% and -23.14%. COCc1nc(C(=O)N2CCCC2c2cc(C)on2)cs1 (stereo not drawn) read -22.84%.

CN(C)C(=O)NC1COC2(CCN(Cc3nccn3C)CC2)C1 (stereo not drawn) read -4.894%. Cc1ccc(NC(=O)NC(C)c2nc[nH]n2)s1 (stereo not drawn) gave 1.547%. COCc1nn(CC2CC2)c2c1CN(C(=O)c1ccno1)CC2 gave 10.61% and 6.291%. For Cc1cnn(CC2CN(CCCS(=O)(=O)N(C)C)CCO2)c1 (stereo not drawn) the result was -10.71%. For COC(=O)CNc1ccc(-c2nc(Cc3ccc(OC)cc3)no2)cn1 the result was 14.21%.

With [H][C@@]12CS(=O)(=O)C[C@]1([H])N(Cc1nc(C)n[nH]1)CCN2C(=O)C1CCC1 the screen gave 16.25% and 3.311%. CCc1nccn1C1CCCN(C(=O)c2cnc3ccccc3n2)C1 (stereo not drawn) gave -2.444% and 21.62%. For O=C(O)C(F)(F)F.O=C(O)C(F)(F)F.O=C(O)C(F)(F)F.[H][C@]12C[C@@H](Cn3cccn3)N(C)[C@@]1([H])CCN(Cc1cccs1)C2 the result was 11.57%. For Cc1[nH]c2ccc(CNc3cc(C(=O)NC(C)C)ccn3)cc2c1C the result was 27.65%. Result for CC(C)CCN1Cc2c(C(=O)O)ncn2-c2ccccc2S1(=O)=O was -60.16%.

Result for CCn1cc(CNc2ccc(Br)c(OC)c2)cn1 was 9.201% and 6.532%. Result for CC(=O)N1CCCC1c1nnn2cc(NCc3cccnc3)ccc12.O=C(O)C(F)(F)F.O=C(O)C(F)(F)F (stereo not drawn) was -22.07% and -18.97%. O=C(Nc1cccc2c1CCCC2)c1cccnc1N1CCCNCC1 read -2.561%. For CS(=O)(=O)N1CC(c2nc[nH]n2)c2cc(C(=O)NC3CC3)ccc21 (stereo not drawn) the result was -20.4%. Result for CN1CCCn2c(nc(CNC(=O)c3ccsc3)cc2=O)C1.O=C(O)C(F)(F)F was -16.63%.

CCc1nnc2n1CCN(C(=O)c1cc3cc(F)ccc3[nH]1)C2 gave 11.54%. O=C(N[C@H]1CN(c2nc(CO)cs2)C[C@@H]1C1CC1)C1CCCCC1 gave -2.643%. CCN1CCC2(CC1)CN(C(=O)c1cccnc1)c1ccc(Cl)cc12.O=C(O)C(F)(F)F.O=C(O)C(F)(F)F read 22.12%. Result for COc1ccc(F)c(-c2cc(C)nc(N)n2)c1 was 3.115% and 21.12%. N#Cc1ccc(F)c(CN2CCc3sccc3C2)c1 read 22.14%.

Result for c1ccc(-c2nc(CNC3CCc4ncnn4C3)co2)cc1 (stereo not drawn) was -3.689%. For CCc1cc(CNC(=O)N2CCC(Cc3cnn(C)c3)C2)on1 (stereo not drawn) the result was 28.63%. CC(=O)N1N=C(c2ccco2)OC1C(=O)N(CC(C)C)CC(C)C (stereo not drawn) read -3.029%. For CCOc1ncccc1NC(=O)N1CCC(CN2CCOCC2)CC1 the result was 11.89%. CC(C)(C)c1ncc(CNCC2CCCn3ccnc32)s1 (stereo not drawn) gave 16.07%.

With Cc1ccccc1C1CCCN(C(=O)c2c[nH]c(=O)c(Cl)c2)C1 (stereo not drawn) the screen gave 7.057%. CC(C)c1ocnc1C(=O)N1CCC(=O)Nc2cccnc21 read 4.48% and -2.715%. For CCN(CC)CCSc1nnc(N2CCN(c3ccc(F)cc3)CC2)s1 the result was -8.09%. With Cc1nc(-c2ccccc2)sc1C(=O)NCCNc1ncccn1 the screen gave -2.454%. For O=C(c1ccc(Sc2ccccn2)cc1)N1CCCSCC1 the result was 1.284% and 3.282%.

Result for Cn1cnc(S(=O)(=O)N2CCN(CC3CC3)c3ncccc3C2)c1.O=C(O)C(F)(F)F.O=C(O)C(F)(F)F was 7.465% and 1.485%. Result for O=C(CNC(=O)c1ccc(Cl)cc1)Nc1nccs1 was -4.105% and -4.906%. Result for CCc1cnc2c(c1Nc1ccccc1OC)c(=O)n(C)c(=O)n2C was -7.719%. CC(C)CCNC(=O)c1c(-n2cnnn2)sc2c1CCCC2 gave -36.97%. For COCCc1ncc(CN2CCC(Oc3ccccc3C)CC2)cn1 the result was 20.14%.

Cc1nn(C)c(Cl)c1S(=O)(=O)N(CC(N)=O)CC(C)C read 1.369% and -2.888%. CC(C)c1nc(C2CCCN(C(=O)c3ccc(N(C)C)nn3)C2)no1 (stereo not drawn) gave 39.7%. For CN(Cc1cnn(C)c1)C(=O)C1COCC(=O)N1Cc1ccccc1 (stereo not drawn) the result was 3.317%. Result for O=C(O)c1cc(/C=C/c2ccc3ccccc3c2)ncn1 was 4.857%.

3 of the entries, repeated:

compound,percent effect
COCCc1ncc(CN2CCC(Oc3ccccc3C)CC2)cn1,20.14%
CC(=O)N1CCCC1c1nnn2cc(NCc3cccnc3)ccc12.O=C(O)C(F)(F)F.O=C(O)C(F)(F)F (stereo not drawn),-22.07% and -18.97%
Cc1[nH]c2ccc(CNc3cc(C(=O)NC(C)C)ccn3)cc2c1C,27.65%